Experimental data reported in PubChem BioAssay AID651640 (Broad Institute, 2012).
The campaign covered roughly 350,000 compounds. About 6,000 (1.7%) were called active. The shares of active, inactive and inconclusive entries below differ from those in the screen. No stated cut-off is given here; in the data, active means CPE inhibition above about 20% (passing the limit was not always enough); inconclusive means no clear call, values can overlap the other calls; tested in BHK-21 cells.

Experiment: protection of cells from dengue 2 killing – plate reader, single concentration, primary screen (AID 651640);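 further: 0% = median of neutral control wells and 100% = median of positive control wells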
Conditions: DENV2-infected cells, cytopathic effect rescue, at 9.99 µM, stronger effect = higher value

Compound	CPE inhibition
COc1ccccc1S(=O)(=O)N[C@@H]1C=C[C@H](CC(=O)NCc2cc(F)cc(F)c2)O[C@H]1CO	inactive: 1.49%
O=C(c1ccccn1)N1CC(=O)N2[C@@H](CO)[C@H](c3ccc(-c4cccc(F)c4)cc3)[C@@H]2C1	inconclusive: 30.4%
NC(=O)c1c(NC(=O)Cc2ccccc2)sc2c1CCN(Cc1ccccc1)C2	inconclusive: 31.7%
O=C1NC2(CCCCCC2)Cc2ccccc21	inactive: -5%
COC(=O)[C@@]12CCCCN1[C@H](c1ccc(-c3ccc(F)cc3)cc1)[C@H]1C(=O)N(C)C(=O)[C@H]12	active: 39%
CCN(c1ccccc1)S(=O)(=O)c1ccc(C(=O)NCC(=O)Nc2ccc(F)c(F)c2F)cc1	inconclusive: 50.4%
Cc1ccc2[nH]c(=O)c(CN(CC3CCCO3)C(=S)Nc3ccccc3)cc2c1 (configuration not stated)	inconclusive: 29.9%
O=C(NCC[C@H]1CC[C@H](NC(=O)C2CCCC2)[C@@H](CO)O1)c1ccc(F)cc1	active: 29.4%
CCCS(=O)(=O)c1nc(S(=O)(=O)c2ccc(C)cc2)c(N2CCCCC2)s1	inconclusive: 49.6%
CSc1nn(CCC#N)c(=O)[nH]c1=O	inconclusive: 119%
O=S1(=O)CCOCCCN1Cc1ccc(Cl)cc1	inconclusive: 23.4%
CCCN1C[C@@H](C)[C@H](OC)CN(C)C(=O)c2cc(NC(=O)c3ccccc3F)ccc2OC[C@@H]1C	inconclusive: 27.4%
C[C@H]1CN([C@@H](C)CO)C(=O)Cc2cc(NS(=O)(=O)c3cn(C)cn3)ccc2O[C@@H]1CN(C)C(=O)Nc1cccc2ccccc12	inconclusive: 25.7%
C[C@H](CO)N1C[C@H](C)[C@@H](CN(C)CC2CCCCC2)Oc2ccc(NC(=O)Nc3ccc4c(c3)OCO4)cc2CC1=O	active: 29.3%
CCOc1ccc(CCNS(=O)(=O)c2ccc3c(c2)NC(=O)CO3)cc1OCC	inconclusive: 34.1%
CC(C)C[C@H]1CN([C@@H](Cc2ccc(O)cc2)CN2CCC[C@@H]2CN2C(=O)C(=O)NC[C@@H]2Cc2ccccc2)C(=O)C(=O)N1CC1CCCCCC1	inconclusive: 23.5%
Cc1cc(Br)ccc1NC(=O)C1CSC2(C)CCC(=O)N12 (configuration not stated)	inactive: -6.55%
CCNC(=S)N=Nc1c(O)n(Cc2ccc(Cl)cc2)c2ccccc12	inconclusive: 44.2%
CC(=O)N1[C@H](CN(C)C(=O)c2ccccc2F)[C@@H](c2ccccc2)[C@@H]1CO	active: 61.2%
C[C@H](CO)N1C[C@H](C)[C@H](CN(C)Cc2ccc(C(=O)Nc3ccccc3N)cc2)Oc2ccc(NS(=O)(=O)c3ccc(F)cc3)cc2C1=O	inactive: -5.52%
COc1ccc2c(c1)[C@@H]1[C@H](CO2)[C@H](c2ccccc2)[C@]2(C)C(=O)NCC(=O)N12	inconclusive: 74%
CN1CCCCN2[C@H](CO)[C@H](c3ccc(C4=CCCC4)cc3)[C@H]2C1	active: 28.5%
CCCCn1nnnc1C(c1cc2ccccc2o1)N(C)Cc1ccc(Cl)cc1 (configuration not stated)	inconclusive: 23.3%
CC=Cc1ccc2n(c1=O)C[C@@H]1[C@@H](CO)[C@H](C(=O)N3CCOCC3)[C@H]2N1CC1CCCC1 (mixture of isomers)	active: 36.5%

Compound	CPE inhibition
Fc1ccc(Nc2nc(NCc3ccco3)c3ccccc3n2)cc1	inactive: -16%
CC(C)CC(N)c1csc(NC(=O)c2cc(C(C)(C)C)nn2Cc2ccccc2)n1 (configuration not stated)	inconclusive: 62%
CCCCNc1ccc2c(c1)OC[C@H](C)NS2(=O)=O	inconclusive: 53%
Cc1nn(C)cc1NC(=O)C[C@H]1CC[C@@H]2[C@H](COc3ccc(NC(=O)NC(C)C)cc3C(=O)N2C)O1	active: 32.6%
CCCc1cn(CC[C@H]2CC[C@H](NC(=O)Nc3ccc4c(c3)OCO4)[C@@H](CO)O2)nn1	inactive: 3.3%
Cc1ccc(S(=O)(=O)NCc2ccccc2)cc1C(=O)N1CCN(S(=O)(=O)c2ccccc2F)CC1	active: 58.1%
CCCCn1c(=O)[nH]c2ccccc21	inconclusive: 25.6%
COc1cccc(-c2ccc([C@H]3[C@H](CO)N4CCCCN(C(=O)c5ccc(F)cc5)C[C@@H]34)cc2)c1	active: 37%
O=C(C[C@H]1CC[C@@H](NS(=O)(=O)c2ccccc2)[C@@H](CO)O1)NCc1ccc(Cl)c(Cl)c1	inconclusive: 42.1%
CC(=O)NC(=S)NNC(=O)CCc1ccccc1	inactive: -4.02%
CN1CCN(C(=O)C[C@@H]2C=C[C@@H](NC(=O)Nc3ccccc3F)[C@@H](CO)O2)CC1	inconclusive: 27.2%
Cc1cc(=O)[nH]c(-c2cccs2)n1	inconclusive: 25%
CC(=O)Nc1cccc(OCc2ccc([N+](=O)[O-])cc2)c1	inactive: -1.04%
Cc1ccc(-c2ccc([C@H]3[C@@H](CO)N4CCCCN(C)C[C@H]34)cc2)cc1	active: 27%
COCCCn1c(=O)c2ccccc2n(Cc2ccc(C)cc2)c1=O	inconclusive: 37.6%
CC(/C=N/NC(=O)c1ccc(Cn2cc([N+](=O)[O-])cn2)o1)=C\c1ccccc1	inactive: 5.42%
C[C@@H]1CN([C@@H](C)CO)C(=O)CCCn2nncc2CO[C@H]1CN(C)Cc1cccc(C(=O)O)c1	inconclusive: 33.4%
CCC(SC1=NCCS1)C(=O)Nc1ccc(S(N)(=O)=O)cc1 (configuration not stated)	active: 26%
COc1ccc2nc(NCCNC(=S)NCCCN3CCOCC3)c(C#N)cc2c1	inactive: -6.94%
C[C@H]1CN([C@@H](C)CO)C(=O)c2cc(NS(=O)(=O)c3ccc(Cl)cc3)ccc2O[C@H]1CN(C)C	inactive: 16.3%
CC(C)C#Cc1cnc2c(c1)C(=O)N([C@@H](C)CO)C[C@H](C)[C@@H](CN(C)Cc1cccc(F)c1)O2	inactive: -12.1%
O=C(C[C@H]1C[C@H]2c3cc(NC(=O)Nc4ccccc4)ccc3O[C@H]2[C@H](CO)O1)NCC1CC1	inactive: 2.79%
Cc1noc(C)c1S(=O)(=O)Nc1ccc2c(c1)C(=O)N([C@H](C)CO)C[C@H](C)[C@@H](CN(C)C(=O)CCCN(C)C)OCCCC[C@H](C)O2	active: 79%

In another format: entries from further up
O=C(C[C@H]1CC[C@@H](NS(=O)(=O)c2ccccc2)[C@@H](CO)O1)NCc1ccc(Cl)c(Cl)c1
  CPE inhibition: inconclusive: 42.1%
CC(=O)NC(=S)NNC(=O)CCc1ccccc1
  CPE inhibition: inactive: -4.02%
CN1CCN(C(=O)C[C@@H]2C=C[C@@H](NC(=O)Nc3ccccc3F)[C@@H](CO)O2)CC1
  CPE inhibition: inconclusive: 27.2%
